Laboratory results reported in PMC10868759.

Protein sequences, listed by entry. Tags and fused reporters are not part of them. Lines headed by an entry give the natural chain unless they say otherwise; changes in a name come on top.
UniProt F4IIM1: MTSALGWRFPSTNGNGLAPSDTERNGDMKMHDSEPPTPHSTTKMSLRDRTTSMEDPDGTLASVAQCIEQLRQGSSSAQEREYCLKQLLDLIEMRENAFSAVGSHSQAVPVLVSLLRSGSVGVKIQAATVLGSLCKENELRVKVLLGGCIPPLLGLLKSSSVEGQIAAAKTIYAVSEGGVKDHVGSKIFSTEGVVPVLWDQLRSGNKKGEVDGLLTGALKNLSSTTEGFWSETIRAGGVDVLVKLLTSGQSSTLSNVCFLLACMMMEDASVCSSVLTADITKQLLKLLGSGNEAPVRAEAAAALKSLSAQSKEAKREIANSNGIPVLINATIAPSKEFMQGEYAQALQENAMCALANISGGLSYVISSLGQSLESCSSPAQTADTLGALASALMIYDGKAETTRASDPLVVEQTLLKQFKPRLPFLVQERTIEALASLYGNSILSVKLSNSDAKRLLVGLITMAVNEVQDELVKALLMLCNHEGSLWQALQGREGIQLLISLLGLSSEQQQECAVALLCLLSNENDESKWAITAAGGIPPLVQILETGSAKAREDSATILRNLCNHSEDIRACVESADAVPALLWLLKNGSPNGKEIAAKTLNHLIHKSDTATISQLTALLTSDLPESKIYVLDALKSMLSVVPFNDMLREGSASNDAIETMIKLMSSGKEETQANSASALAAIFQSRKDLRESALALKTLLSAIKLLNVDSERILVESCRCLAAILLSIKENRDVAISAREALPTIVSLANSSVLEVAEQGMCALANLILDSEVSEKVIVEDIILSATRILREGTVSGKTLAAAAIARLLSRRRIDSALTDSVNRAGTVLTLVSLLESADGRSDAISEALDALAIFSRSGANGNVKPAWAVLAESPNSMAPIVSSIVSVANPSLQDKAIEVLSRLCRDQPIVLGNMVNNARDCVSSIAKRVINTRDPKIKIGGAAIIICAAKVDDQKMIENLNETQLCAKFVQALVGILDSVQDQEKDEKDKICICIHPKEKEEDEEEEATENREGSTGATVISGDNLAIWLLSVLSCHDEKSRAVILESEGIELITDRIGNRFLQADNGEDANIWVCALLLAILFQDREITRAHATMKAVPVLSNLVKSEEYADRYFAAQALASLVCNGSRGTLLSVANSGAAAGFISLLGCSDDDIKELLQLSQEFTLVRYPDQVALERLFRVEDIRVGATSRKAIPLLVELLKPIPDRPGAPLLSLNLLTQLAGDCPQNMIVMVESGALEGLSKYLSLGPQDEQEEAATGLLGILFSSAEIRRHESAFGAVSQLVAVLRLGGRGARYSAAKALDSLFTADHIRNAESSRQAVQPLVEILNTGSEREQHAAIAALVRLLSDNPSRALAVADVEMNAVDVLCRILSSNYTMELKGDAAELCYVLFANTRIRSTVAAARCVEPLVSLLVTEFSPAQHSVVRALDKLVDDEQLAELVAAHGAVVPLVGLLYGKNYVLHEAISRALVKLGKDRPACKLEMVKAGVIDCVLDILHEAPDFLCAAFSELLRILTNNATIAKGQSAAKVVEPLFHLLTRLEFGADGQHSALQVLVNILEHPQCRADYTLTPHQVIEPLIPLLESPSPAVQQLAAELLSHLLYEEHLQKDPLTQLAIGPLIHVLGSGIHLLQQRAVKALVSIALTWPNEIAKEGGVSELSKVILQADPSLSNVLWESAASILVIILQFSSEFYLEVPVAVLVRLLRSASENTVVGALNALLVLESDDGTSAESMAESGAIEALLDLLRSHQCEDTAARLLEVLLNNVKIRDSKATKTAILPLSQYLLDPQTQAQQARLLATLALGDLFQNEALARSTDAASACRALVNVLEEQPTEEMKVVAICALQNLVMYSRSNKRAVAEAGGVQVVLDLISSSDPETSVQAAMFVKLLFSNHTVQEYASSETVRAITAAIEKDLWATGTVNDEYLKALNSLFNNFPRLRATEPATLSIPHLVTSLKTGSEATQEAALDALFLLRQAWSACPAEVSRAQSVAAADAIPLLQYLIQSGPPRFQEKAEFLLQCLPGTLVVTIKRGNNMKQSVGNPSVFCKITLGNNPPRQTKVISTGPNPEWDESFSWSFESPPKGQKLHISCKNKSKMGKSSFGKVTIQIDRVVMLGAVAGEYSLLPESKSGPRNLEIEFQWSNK
UniProt Q9ZRE2: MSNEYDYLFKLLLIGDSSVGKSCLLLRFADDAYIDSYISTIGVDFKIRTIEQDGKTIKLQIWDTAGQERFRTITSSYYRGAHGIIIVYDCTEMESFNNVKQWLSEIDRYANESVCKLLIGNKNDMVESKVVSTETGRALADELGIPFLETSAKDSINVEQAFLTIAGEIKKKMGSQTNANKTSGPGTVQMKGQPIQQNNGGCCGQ
UniProt F4I1B4: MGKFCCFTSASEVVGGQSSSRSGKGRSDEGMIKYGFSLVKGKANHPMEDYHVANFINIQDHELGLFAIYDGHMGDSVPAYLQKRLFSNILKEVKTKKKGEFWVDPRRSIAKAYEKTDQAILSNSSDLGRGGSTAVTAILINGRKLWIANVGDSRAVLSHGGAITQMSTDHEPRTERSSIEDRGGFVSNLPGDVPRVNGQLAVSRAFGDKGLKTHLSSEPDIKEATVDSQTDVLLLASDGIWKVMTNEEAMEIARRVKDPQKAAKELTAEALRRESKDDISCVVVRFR

What was measured:
[1] = target: T1, YFP-CESA6 (Arabidopsis thaliana) (UniProt Q94JQ6); experiment: affinity purification with mass spectrometry; GFP-Trap A beads with 5 mg total protein extract of plants expressing YFP-CESA6 or LTi6b-GFP (control), overnight at 4°C; extraction buffer 100 mM Tris-HCl pH 7.5, 150 mM NaCl, 0.2% Nonidet P-40; washes with 150 mM and 500 mM NaCl; on-bead trypsin digestion, LC-MS/MS
T1 sequence: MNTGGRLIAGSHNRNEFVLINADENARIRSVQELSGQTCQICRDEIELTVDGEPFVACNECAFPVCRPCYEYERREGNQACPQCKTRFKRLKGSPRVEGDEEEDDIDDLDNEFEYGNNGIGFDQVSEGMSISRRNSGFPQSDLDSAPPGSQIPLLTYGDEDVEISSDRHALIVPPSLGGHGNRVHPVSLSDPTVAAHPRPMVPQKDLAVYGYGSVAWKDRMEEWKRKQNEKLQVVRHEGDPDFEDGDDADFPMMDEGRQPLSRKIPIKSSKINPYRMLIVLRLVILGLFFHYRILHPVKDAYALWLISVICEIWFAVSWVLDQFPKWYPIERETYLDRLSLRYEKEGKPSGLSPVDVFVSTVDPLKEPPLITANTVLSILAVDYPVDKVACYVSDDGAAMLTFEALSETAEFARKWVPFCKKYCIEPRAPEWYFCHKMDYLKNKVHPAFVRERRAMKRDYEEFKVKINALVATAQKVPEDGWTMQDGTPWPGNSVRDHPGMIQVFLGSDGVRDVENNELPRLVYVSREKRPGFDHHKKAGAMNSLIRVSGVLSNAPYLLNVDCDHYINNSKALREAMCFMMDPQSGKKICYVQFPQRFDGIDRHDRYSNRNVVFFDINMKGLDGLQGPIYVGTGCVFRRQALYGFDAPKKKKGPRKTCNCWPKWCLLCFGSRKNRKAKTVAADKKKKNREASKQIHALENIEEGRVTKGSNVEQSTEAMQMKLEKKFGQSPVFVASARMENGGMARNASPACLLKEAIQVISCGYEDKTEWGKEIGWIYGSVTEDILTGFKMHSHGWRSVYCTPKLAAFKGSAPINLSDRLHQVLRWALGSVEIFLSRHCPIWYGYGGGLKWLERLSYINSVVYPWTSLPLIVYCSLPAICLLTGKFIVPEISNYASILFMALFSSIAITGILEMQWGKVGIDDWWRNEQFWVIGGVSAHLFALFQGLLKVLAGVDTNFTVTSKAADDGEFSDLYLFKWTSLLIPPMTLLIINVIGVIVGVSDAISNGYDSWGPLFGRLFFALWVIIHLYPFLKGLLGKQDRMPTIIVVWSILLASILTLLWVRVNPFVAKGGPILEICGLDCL

[2] = target: T1, YFP-CESA6 (Arabidopsis thaliana); experiment: as above; remark: listed apart in the source

In the case of CSI1 (from UniProt F4IIM1 1-2150), the binding [1] is reported as “binds”.

For RABD1 (from UniProt Q9ZRE2 1-205), the binding [1] was “binds”.

“PHYTOCHROME-ASSOCIATED PROTEIN PHOSPHATASE TYPE 2C (from UniProt F4I1B4) (enzyme)” was tested, and the binding [1] was “binds”.

B1: CESA1 (protein, UniProt O48946 1-1081)
chain: MEASAGLVAGSYRRNELVRIRHESDGGTKPLKNMNGQICQICGDDVGLAETGDVFVACNECAFPVCRPCYEYERKDGTQCCPQCKTRFRRHRGSPRVEGDEDEDDVDDIENEFNYAQGANKARHQRHGEEFSSSSRHESQPIPLLTHGHTVSGEIRTPDTQSVRTTSGPLGPSDRNAISSPYIDPRQPVPVRIVDPSKDLNSYGLGNVDWKERVEGWKLKQEKNMLQMTGKYHEGKGGEIEGTGSNGEELQMADDTRLPMSRVVPIPSSRLTPYRVVIILRLIILCFFLQYRTTHPVKNAYPLWLTSVICEIWFAFSWLLDQFPKWYPINRETYLDRLAIRYDRDGEPSQLVPVDVFVSTVDPLKEPPLVTANTVLSILSVDYPVDKVACYVSDDGSAMLTFESLSETAEFAKKWVPFCKKFNIEPRAPEFYFAQKIDYLKDKIQPSFVKERRAMKREYEEFKVRINALVAKAQKIPEEGWTMQDGTPWPGNNTRDHPGMIQVFLGHSGGLDTDGNELPRLIYVSREKRPGFQHHKKAGAMNALIRVSAVLTNGAYLLNVDCDHYFNNSKAIKEAMCFMMDPAIGKKCCYVQFPQRFDGIDLHDRYANRNIVFFDINMKGLDGIQGPVYVGTGCCFNRQALYGYDPVLTEEDLEPNIIVKSCCGSRKKGKSSKKYNYEKRRGINRSDSNAPLFNMEDIDEGFEGYDDERSILMSQRSVEKRFGQSPVFIAATFMEQGGIPPTTNPATLLKEAIHVISCGYEDKTEWGKEIGWIYGSVTEDILTGFKMHARGWISIYCNPPRPAFKGSAPINLSDRLNQVLRWALGSIEILLSRHCPIWYGYHGRLRLLERIAYINTIVYPITSIPLIAYCILPAFCLITDRFIIPEISNYASIWFILLFISIAVTGILELRWSGVSIEDWWRNEQFWVIGGTSAHLFAVFQGLLKVLAGIDTNFTVTSKATDEDGDFAELYIFKWTALLIPPTTVLLVNLIGIVAGVSYAVNSGYQSWGPLFGKLFFALWVIAHLYPFLKGLLGRQNRTPTIVIVWSVLLASIFSLLWVRINPFVDANPNANNFNGKGGVF
With B1 the binding [2] was “binds”.

B2: RABA2C (protein, UniProt Q96283 1-217)
chain: MTHRVDQEYDYLFKIVLIGDSGVGKSNILSRFTRNEFCLESKSTIGVEFATRTTQVEGKTIKAQIWDTAGQERYRAITSAYYRGAVGALLVYDITKRQTFDNVLRWLRELRDHADSNIVIMMAGNKSDLNHLRSVAEEDGQSLAEKEGLSFLETSALEATNVEKAFQTILGEIYHIISKKALAAQEAAAANSAIPGQGTTINVDDTSGGAKRACCSS
B2 was tested, and the binding [2] was “binds”.

B3: COTTON GOLGI-RELATED 2 (protein, UniProt Q9M2Y6 1-261)
chain: MARRQVGSTRRVGDGGSFPFAGALHSKSRSSPLLSICLVLVGACLLIGYAYSGPGIFKSIKEVSKVTGDYSCTAEVQRAIPVLKKAYGDGMRKVLHVGPDTCSVVSSLLKEEETEAWGVEPYDIEDADSHCKSFVSKGLVRVADIKFPLPYRAKSFSLVIVSDALDYLSPKYLNKTVPELARVASDGVVLFAGLPGQQRAKVAELSKFGRPAKMRSASWWNRFFVQTNLEENDAPSKKFEQAVSKGLYKPACQVFHLKPLH
For B3, the binding [2] was “binds”.

B4: CGR3 (protein, UniProt Q0WPN7 1-258)
chain: MSRRQVRRVGDSGSFPFVGALHSKSRSSPLLSVCLVLVGACLLIGYAYSGPGMFKSIREVSKITGDYSCTAEVQRAIPILKSAYGDSMRKVLHVGPETCSVVSSLLNEEETEAWGVEPYDVEDADSNCKSLLHKGLVRVADIKFPLPYRSKSFSLVIVSDALDYLSPRYLNKTVPELARVASDGVVLLAGNPGQQKAKGGELSKFGRPAKMRSSSWWIRFFSQTNLEENEAASKKFEQAASKSSYKPACQVFHLKPLH
For B4, the binding [2] was “binds”.

B5: GTPase Interacting Protein 4a (protein, UniProt O64614 1-281)
chain: MSQGDTVPLHPSSQSDIDEIENLINESVQSGPGTVLAARPPSPTRPSIPVSSSSSSSPFMQSNLPPLHPSSSAQKVTHVPVPPPLPAVSNSSNFQGASAFGSPPNTLTEPVWDTVKRDLSRIVSNLKLVVFPNPYREDPGKALRDWDLWGPFFFIVFLGLTLSWSASVKKSEVFAVAFALLAAGAVILTLNVLLLGGHIIFFQSLSLLGYCLFPLDVGAVICMLKDNVILKMVVVSVTLAWSSWAAYPFMSSAVNPRRKALALYPVFLMYVSVGFLIIAIN
For B5, the binding [2] was “binds”.

B6: CESA3 (protein, UniProt Q941L0 1-1065)
chain: MESEGETAGKPMKNIVPQTCQICSDNVGKTVDGDRFVACDICSFPVCRPCYEYERKDGNQSCPQCKTRYKRLKGSPAIPGDKDEDGLADEGTVEFNYPQKEKISERMLGWHLTRGKGEEMGEPQYDKEVSHNHLPRLTSRQDTSGEFSAASPERLSVSSTIAGGKRLPYSSDVNQSPNRRIVDPVGLGNVAWKERVDGWKMKQEKNTGPVSTQAASERGGVDIDASTDILADEALLNDEARQPLSRKVSIPSSRINPYRMVIMLRLVILCLFLHYRITNPVPNAFALWLVSVICEIWFALSWILDQFPKWFPVNRETYLDRLALRYDREGEPSQLAAVDIFVSTVDPLKEPPLVTANTVLSILAVDYPVDKVSCYVSDDGAAMLSFESLAETSEFARKWVPFCKKYSIEPRAPEWYFAAKIDYLKDKVQTSFVKDRRAMKREYEEFKIRINALVSKALKCPEEGWVMQDGTPWPGNNTRDHPGMIQVFLGQNGGLDAEGNELPRLVYVSREKRPGFQHHKKAGAMNALVRVSAVLTNGPFILNLDCDHYINNSKALREAMCFLMDPNLGKQVCYVQFPQRFDGIDKNDRYANRNTVFFDINLRGLDGIQGPVYVGTGCVFNRTALYGYEPPIKVKHKKPSLLSKLCGGSRKKNSKAKKESDKKKSGRHTDSTVPVFNLDDIEEGVEGAGFDDEKALLMSQMSLEKRFGQSAVFVASTLMENGGVPPSATPENLLKEAIHVISCGYEDKSDWGMEIGWIYGSVTEDILTGFKMHARGWRSIYCMPKLPAFKGSAPINLSDRLNQVLRWALGSVEILFSRHCPIWYGYNGRLKFLERFAYVNTTIYPITSIPLLMYCTLPAVCLFTNQFIIPQISNIASIWFLSLFLSIFATGILEMRWSGVGIDEWWRNEQFWVIGGVSAHLFAVFQGILKVLAGIDTNFTVTSKASDEDGDFAELYLFKWTTLLIPPTTLLIVNLVGVVAGVSYAINSGYQSWGPLFGKLFFAFWVIVHLYPFLKGLMGRQNRTPTIVVVWSVLLASIFSLLWVRIDPFTSRVTGPDILECGINC
B6 was tested, and the binding [2] was “binds”.

B7: SYNTAXIN OF PLANTS 71 (protein, UniProt Q9SF29 1-266)
chain: MTVIDILTRVDSICKKYDKYDVDKQREANISGDDAFARLYGAFETQIETALEKAELVTKEKNRAAAVAMNAEIRRTKARLSEEVPKLQRLAVKRVKGLTTEELAARNDLVLALPARIEAIPDGTAGGPKSTSAWTPSSTTSRPDIKFDSDGRFDDDYFQESNESSQFRQEYEMRKIKQEQGLDMISEGLDALKNMASDMNEELDRQVPLMDEIDTKVDRATSDLKNTNVRLKDTVNQLRSSRNFCIDIVLLCIVLGIAAYLYNVLK
B7 was tested, and the binding [2] was “binds”.

B8: VESICAL TRANSPORT V-SNARE 12 (protein, UniProt Q9SEL5 1-222)
chain: MSDVFEGYERQYCELSTNLSRKCHSASVLSNGEEKKGKIAEIKSGIDEADVLIRKMDLEARSLQPSAKAVCLSKLREYKSDLNQLKKEFKRVSSADAKPSSREELMESGMADLHAVSADQRGRLAMSVERLDQSSDRIRESRRLMLETEEVGISIVQDLSQQRQTLLHAHNKLHGVDDAIDKSKKVLTAMSRRMTRNKWIITSVIVALVLAIILIISYKLSH
B8 was tested, and the binding [2] was “binds”.

B9: VAMP722 (protein, UniProt P47192 1-221)
chain: MAQQSLIYSFVARGTVILVEFTDFKGNFTSIAAQCLQKLPSSNNKFTYNCDGHTFNYLVENGFTYCVVAVDSAGRQIPMAFLERVKEDFNKRYGGGKAATAQANSLNKEFGSKLKEHMQYCMDHPDEISKLAKVKAQVSEVKGVMMENIEKVLDRGEKIELLVDKTENLRSQAQDFRTQGTQMRRKMWFQNMKIKLIVLAIIIALILIIILSICGGFNCGK
For B9, the binding [2] was “binds”.

B10: VAMP727 (protein, UniProt Q9M376 1-240)
chain: MSQKGLIYSFVAKGTVVLAEHTPYSGNFSTIAVQCLQKLPTNSSKYTYSCDGHTFNFLVDNGFVFLVVADESTGRSVPFVFLERVKEDFKKRYEASIKNDERHPLADEDEDDDLFGDRFSVAYNLDREFGPILKEHMQYCMSHPEEMSKLSKLKAQITEVKGIMMDNIEKVLDRGEKIELLVDKTENLQFQADSFQRQGRQLRRKMWLQSLQMKLMVAGAVFSFILIVWVVACGGFKCSS
With B10 the binding [2] was “binds”.

Read-outs that look alike come from different tables or passages of the source. Results are given in words; binding and its absence hold for the method and conditions named. Binding seen in cells or lysates may run through a third protein. Here binding means that the protein was enriched with, or labelled near, the bait; the list need not be complete. Where a sequence is shown, tags or fusion partners need not be part of it.
